Experiments:
[1] = general procedure: Fmoc solid-phase peptide synthesis; NovaPEG Rink Amide resin or NovaPEG TGT resin (Novabiochem); HCTU/DIPEA; conditions: for step yield: late stage modification step
[2] = general procedure: Fmoc solid-phase peptide synthesis; NovaPEG Rink Amide resin; HCTU/DIPEA; conditions: whole synthesis, scale 0.2 mmol

## Fmoc-Cys(Acm)-Gly-Gly-Gly-Gly-Dphe-Pip-Arg-PABC-rRAPGK(Alloc)LTCLASYCWLFWTGIA-NH2
[1]; conjugation step, over 2 steps
  conjugation yield: 25% for 2 steps

## rRAPGK(Alloc)LTCLASYCWLFWTGIA-NH2 (disulfide)
[2]
  isolated mass: 35 mg

## Fmoc-Cys(Acm)-Gly-Gly-Gly-Gly-Dphe-Pip-Arg(Pbf)-PABOH
[1]
  step yield: 70%

## Cys(Acm)-Gly-Gly-Gly-Gly-Dphe-Pip-Arg-PABC-rRAPGKLTCLASYCWLFWTGIA-NH2 (disulfide)
[1]; over 2 steps
  step yield: 12% over 2 steps

## Fmoc-Cys(Acm)-Gly-Gly-Gly-Gly-Dphe-Pip-Arg(Pbf)-PABC-PNP
[1]
  step yield: 75%
